In patent publication US20240270866A1:
Results are given in words; binding and its absence hold for the method and conditions named. Some entries that bind do so weakly or less than the wild type.

Chains of the proteins cited; added tags and fusions are not shown. Lines headed by an entry give the natural chain unless they say otherwise; changes in a name come on top.
UniProt P78324: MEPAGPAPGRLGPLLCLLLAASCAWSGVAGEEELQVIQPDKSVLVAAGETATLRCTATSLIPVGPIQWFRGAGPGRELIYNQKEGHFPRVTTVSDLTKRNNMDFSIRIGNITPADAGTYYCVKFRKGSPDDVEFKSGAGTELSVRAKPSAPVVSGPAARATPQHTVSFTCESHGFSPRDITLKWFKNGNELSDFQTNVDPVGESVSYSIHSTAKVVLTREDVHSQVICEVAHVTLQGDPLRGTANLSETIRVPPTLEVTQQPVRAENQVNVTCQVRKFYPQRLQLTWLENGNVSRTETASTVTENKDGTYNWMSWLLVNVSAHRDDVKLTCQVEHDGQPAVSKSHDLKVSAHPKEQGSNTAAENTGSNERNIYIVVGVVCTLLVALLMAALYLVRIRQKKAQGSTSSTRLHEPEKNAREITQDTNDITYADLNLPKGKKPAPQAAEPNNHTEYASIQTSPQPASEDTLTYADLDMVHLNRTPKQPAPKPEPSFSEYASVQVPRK

What was measured:
[1] = target: human SIRPA Fc fusion antigen (human) (UniProt P78324); assay: ForteBio Fab monovalent
[2] = target: human SIRPA Fc fusion antigen (human) (UniProt P78324); assay: ForteBio IgG avid

binding [1]	binding [2]	Binder
binds		SA-34 Fab (Fab, V domains shown) VH: QVQLVQSGAEVKKPGASVKVSCKASGYTFTNYGISWVRQAPGQGLEWMGWISAYNGNTNYAQKLQGRVTMTTDTSTSTAYMELRSLRSDDTAVYYCARDVYSSYSYWGQGTLVTVSS VL: DIQLTQSPSTLSASVGDRVTITCRASQSISSWLAWYQQKPGKAPKLLIYDASSLESGVPSRFSGSGSGTEFTLTISSLQPDDFATYYCQQYELLPPTFGGGTKVEIK
	binds	SA-13-71 (antibody, V domains shown) VH: EVQLLESGGGLVQPGGSLRLSCAASGFTFSEWAMSWVRQAPGKGLEWVSAISGSGGSTYYADSVKGRFTISRDNSKNTLYLQMNSLRAEDTAVYYCARDGRTWGPHFYWGQGTLVTVSS VL: DIQMTQSPSSLSASVGDRVTITCRASQSISSYLNWYQQKPGKAPKLLIYAASSLQSGVPSRFSGSGSGTDFTLTISSLQPEDFATYYCQQGYIYPPTFGGGTKVEIK
binds		SA-13-71 Fab (Fab, V domains shown) VH: EVQLLESGGGLVQPGGSLRLSCAASGFTFSEWAMSWVRQAPGKGLEWVSAISGSGGSTYYADSVKGRFTISRDNSKNTLYLQMNSLRAEDTAVYYCARDGRTWGPHFYWGQGTLVTVSS VL: DIQMTQSPSSLSASVGDRVTITCRASQSISSYLNWYQQKPGKAPKLLIYAASSLQSGVPSRFSGSGSGTDFTLTISSLQPEDFATYYCQQGYIYPPTFGGGTKVEIK

Continued, binder first:

Binder	binding [1]	binding [2]
SA-5-58 Fab (Fab, V domains shown) VH: EVQLLESGGGLVQPGGSLRLSCAASGFTFDSYAMSWVRQAPGKGLEWVSAISGSGGSTYHADSVKGRFTISRDNSKNTLYLQMNSLRAEDTAVYYCAKDTGISLWSVTPPYFDLWGRGTLVTVSS VL: DIQLTQSPSSVSASVGDRVTITCRASQDISSWLAWYQQKPGKAPKLLIYAASSLQSGVPSRFSGSGSGTDFTLTISSLQPEDFATYYCQQGYIFPRTFGGGTKVEIK	binds	
SA-5-59 Fab (Fab, V domains shown) VH: EVQLLESGGGLVQPGGSLRLSCAASGFTFDNYAMSWVRQAPGEGLEWVSAVSGSGGSTYYADSVRGRFTISRDNSKNTLYLQMDSLRAEDTAVYYCAKDTGIDFWARTPPYFDLWGRGTLVTVSS VL: DIQLTQSPSSVSASVGDRVTITCRASQDISSWLAWYQQKPGKAPKLLIYAASSLQSGVPSRFSGSGSGTDFTLTISSLQPEDFATYYCQQGYIFPRTFGGGTKVEIK	binds	
SA-5-61 Fab (Fab, V domains shown) VH: EVQLLESGGGLVQPGGSLKLSCAASGFTFDSYAMSWVRQAPGKGLEWVSAISGSGGSTYYADSVKGRFTISRDNSKNTLYLQMNSLRAEDTAVYYCAKDTGIDFWGQYPPYFDLWGRGTLVTVSS VL: DIQLTQSPSSVSASVGDRVTITCRASQDISSWLAWYQQKPGKAPKLLIYAASSLQSGVPSRFSGSGSGTDFTLTISSLQPEDFATYYCQQGYIFPRTFGGGTKVEIK	binds	
